Experimental data as given in article PMC11395016.
These are yes or no findings as the source states them, for the method shown. In cells and extracts the contact can be indirect. Some entries that bind do so weakly or less than the wild type.

Chains of the proteins cited; added tags and fusions are not shown.
UniProt Q00987: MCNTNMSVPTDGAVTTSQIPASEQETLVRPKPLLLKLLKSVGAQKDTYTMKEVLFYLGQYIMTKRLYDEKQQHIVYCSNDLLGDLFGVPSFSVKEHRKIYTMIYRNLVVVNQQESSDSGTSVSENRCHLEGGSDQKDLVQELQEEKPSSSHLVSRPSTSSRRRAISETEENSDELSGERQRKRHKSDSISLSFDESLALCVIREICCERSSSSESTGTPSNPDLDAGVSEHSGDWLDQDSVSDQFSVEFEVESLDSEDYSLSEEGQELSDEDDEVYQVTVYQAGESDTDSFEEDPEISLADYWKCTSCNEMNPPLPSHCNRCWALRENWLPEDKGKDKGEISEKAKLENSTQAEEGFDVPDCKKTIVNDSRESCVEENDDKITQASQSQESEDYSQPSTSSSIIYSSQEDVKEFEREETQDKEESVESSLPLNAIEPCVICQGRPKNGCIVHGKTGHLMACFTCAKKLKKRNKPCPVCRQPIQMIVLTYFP
UniProt P25098: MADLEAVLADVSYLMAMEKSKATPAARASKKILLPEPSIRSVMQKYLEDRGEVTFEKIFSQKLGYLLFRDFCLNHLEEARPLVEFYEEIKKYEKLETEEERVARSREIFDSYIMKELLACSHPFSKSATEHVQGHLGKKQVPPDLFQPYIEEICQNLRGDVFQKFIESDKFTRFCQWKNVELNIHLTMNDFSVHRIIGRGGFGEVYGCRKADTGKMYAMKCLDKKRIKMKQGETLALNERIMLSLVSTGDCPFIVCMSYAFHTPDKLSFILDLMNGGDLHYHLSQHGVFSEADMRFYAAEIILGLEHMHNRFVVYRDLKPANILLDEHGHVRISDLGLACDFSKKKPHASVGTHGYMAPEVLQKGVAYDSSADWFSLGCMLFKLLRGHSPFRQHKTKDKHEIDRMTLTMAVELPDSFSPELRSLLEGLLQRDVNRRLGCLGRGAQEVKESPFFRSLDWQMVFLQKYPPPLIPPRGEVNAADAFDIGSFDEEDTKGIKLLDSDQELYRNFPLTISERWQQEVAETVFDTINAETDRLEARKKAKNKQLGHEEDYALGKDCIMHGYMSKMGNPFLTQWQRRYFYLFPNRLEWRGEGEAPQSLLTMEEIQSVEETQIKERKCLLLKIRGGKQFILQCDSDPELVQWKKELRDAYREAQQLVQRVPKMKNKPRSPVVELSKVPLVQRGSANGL

Biological target: FLAG-Mdm2 (UniProt Q00987)
Test: co-IP; HEK-293 cells transfected with D2R, GRK2 and FLAG-Mdm2; vehicle or 10 μM dopamine for 2 min; nuclear and cytoplasmic fractions each immunoprecipitated with FLAG beads; blot for GRK2

binding: binds
Substance: GRK2 (from UniProt P25098 1-689) (enzyme)
